# In patent US8071592B2 (priority 2006, dated 2011):
# Some entries share one result that the patent states for a list of compounds.
# Tested on: Gram-positive organisms (Staphylococcus aureus, Streptococcus pneumoniae, Streptococcus pyogenes, Enterococcus faecalis, Enterococcus faecium) and …
# Type: cell-based
# Details: against a strain of at least one of the organisms listed; tested in at least one exemplified salt form
row,Structure (SMILES),MIC
1,COc1ccc2ncc(=O)n(CCN3CCC(NCc4ccn5ccc(=O)nc5c4)CC3)c2n1 [Example 274],≥ 8 µg/mL
2,O=c1cc(O)c2ccc(F)cc2n1CCN1CCC(NCc2cc3c(cn2)OCCO3)CC1 [Example 156],≥ 8 µg/mL
3,O=c1ccc2ncccc2n1CCN1CCC(NCc2cn3ccsc3n2)CC1 [Example 303],≥ 8 µg/mL
